Values from PubChem BioAssay AID504784 (Drosophila RNAi Screening Center, 2011).
The deposit covers about 17,000 reagents; shown is a random part of those that have a named target and a result. 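Each column is one replicate's B-score; the combined score over replicates was not deposited, so single values may mislead.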 The numbers tell different reagents against one gene apart. A plus sign joins genes that one reagent is predicted to hit. Reagent sequences are not shown.

Aim: 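Search for regulators of lipid droplet storage in oleate-fed fly cells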 (primary screen)
Cells: Drosophila Kc167 embryonic cells
Knock-down reagent: long dsRNA against Drosophila genes, about 250 ng dsRNA per well
Time to read-out: 4 days
Treatment: cells fed 400 µM oleic acid bound to BSA
Detection: 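Cells imaged and segmented; ratio of lipid droplet area to nuclear area, log-transformed, then normalised as a B-score over the screen; higher means more stored lipid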
Scale: droplet/nuclear area B-score: higher = more stored lipid (overstorage)

no.	predicted target	reagent	droplet/nuclear area B-score, replicate 1	droplet/nuclear area B-score, replicate 2	droplet/nuclear area B-score, replicate 3
1	LpR2	1	-0.35	1.75	
2	LpR2	2	-0.918	-0.0978	
3	LpR2	3	-0.465		
4	LpR2	4	1.25	0.427	
5	CG10588	1	-0.683	-1.78	
6	CG5084	1	1.73	2.88	
7	CG15423	1	0.477	-0.624	
8	Kcmf1	1	3.28	0.414	
9	mv	1	-0.213	0.791	
10	mv	2	-0.861	-0.775	
11	CG4896	1	-1.98	0.847	
12	CG16775	1	-0.00504	-0.0153	
13	Cyp313b1	1	0.548	-1.53	
14	Cyp309a1	1	-1	0.226	
15	fax	1	0.00509	0.529	1.38
16	KLHL18	1	0.736	-6.61	
17	Nubpl	1	0.0594	0.146	
18	CG14852	1	-1.24	-1.41	
19	CG42512 + CG32573	1	0.336	-0.0272	
20	CG42512 + CG32573	2	-0.958	0.45	
21	CG42512 + CG32573	3	0.101	-0.917	
22	CG13000	1	0.271	-0.726	
23	CG11333	1	-0.828	-0.801	
24	Cpr30F	1	-0.608	1.54	
25	CG5217	1	-1.34	0.852	
26	CG13526	1	0.602	-0.161	
27	CG1504	1	1.18	-0.424	
28	zda	1	0.904		
29	Pgant9	1	1.69	0.726	
30	Pgant9	2	1.32	0.615	
31	Pgant9	3	0.25	-0.667	
32	Pgant9	4	3.11	4.41	
33	Pgant9	5	2.87	-0.722	
34	Pgant9	6	0.466	-0.0759	
35	Pgant9	7	-0.33	0.154	
36	Pgant9	8	-1.37	-0.345	
37	CG14606	1	1.46	-0.85	
38	TpnC4	1	0.105	0.421	
39	Max	1	-1.61	-0.0653	0.676
40	CG30177	1	-0.206	0.0199	
41	gudu	1	-0.686	-3.2	
42	HisCl1	1	0.745	-4.97	
43	ball	1	-0.0493	-0.463	
44	CG15011	1	0.642	-0.0177	
45	trol	1	-0.578	0.626	
46	trol	2	-0.476	-0.485	
47	COX8	1	5.04	7.09	
48	CG8072	1	1.17	0.974	
49	CG30037	1	1.68	0.238	
50	Irbp18	1	-0.815	0.056	
51	morgue	1	0.0353	0.966	
52	Mcm2	1	0.035	3.14	
53	rpr	1	0.387	-0.35	
54	Pvf3	1	1.06	0.322	
55	Pvf3	2	-0.72	-3.18	
56	Pvf3	3	-1.51	-0.005	
57	Pvf3	4	0.982	0.219	
58	CG13607	1	7.01	1.14	
59	CG10280	1	-2.81	-0.771	
60	CG31345	1	-1.5	2.31	
61	CG31345	2	-2.04	-0.508	
62	CG7483	1	-0.479	1	
63	CG7483	2	-0.697	-0.135	
64	vvl	1	-0.916	0.0642	
65	glob3	1	0.145	-0.948	
66	asp	1	-1.19	-0.00949	
67	Jhbp15	1	0.332	-2.81	
68	CG18662	1	0.139	-0.3	
69	lolal	1	0.323	1.3	
70	CG3216	1	0.835	0.0856	
71	CG14126 (retired record)	1	-1.44	-1.79	
72	CG11679	1	-1.58	-1.85	1.02
73	CG31600	1	0.622	0.0286	
74	CG31373	1	-0.907	0.485	
75	CG13502	1	0.367	-0.698	
76	CG14115	1	3.24	5.37	
77	MAGE	1	1.18	-0.0633	
78	CG1971	1	-0.694	3.31	
79	l(3)80Fg	1	1.65	-0.211	
80	l(3)80Fg	2	-0.284	-0.966	
81	CG12056	1	-1.81	0.366	-1.36
82	Irp-1A	1	-1.38	-0.411	-0.133
83	mRpL3	1	0.554	0.864	
